The text below walks through data of publication PMC10976826.

Chains of the proteins cited; added tags and fusions are not shown. Residues count along the entry.
UniProt Q9QUK6, residues 26-835: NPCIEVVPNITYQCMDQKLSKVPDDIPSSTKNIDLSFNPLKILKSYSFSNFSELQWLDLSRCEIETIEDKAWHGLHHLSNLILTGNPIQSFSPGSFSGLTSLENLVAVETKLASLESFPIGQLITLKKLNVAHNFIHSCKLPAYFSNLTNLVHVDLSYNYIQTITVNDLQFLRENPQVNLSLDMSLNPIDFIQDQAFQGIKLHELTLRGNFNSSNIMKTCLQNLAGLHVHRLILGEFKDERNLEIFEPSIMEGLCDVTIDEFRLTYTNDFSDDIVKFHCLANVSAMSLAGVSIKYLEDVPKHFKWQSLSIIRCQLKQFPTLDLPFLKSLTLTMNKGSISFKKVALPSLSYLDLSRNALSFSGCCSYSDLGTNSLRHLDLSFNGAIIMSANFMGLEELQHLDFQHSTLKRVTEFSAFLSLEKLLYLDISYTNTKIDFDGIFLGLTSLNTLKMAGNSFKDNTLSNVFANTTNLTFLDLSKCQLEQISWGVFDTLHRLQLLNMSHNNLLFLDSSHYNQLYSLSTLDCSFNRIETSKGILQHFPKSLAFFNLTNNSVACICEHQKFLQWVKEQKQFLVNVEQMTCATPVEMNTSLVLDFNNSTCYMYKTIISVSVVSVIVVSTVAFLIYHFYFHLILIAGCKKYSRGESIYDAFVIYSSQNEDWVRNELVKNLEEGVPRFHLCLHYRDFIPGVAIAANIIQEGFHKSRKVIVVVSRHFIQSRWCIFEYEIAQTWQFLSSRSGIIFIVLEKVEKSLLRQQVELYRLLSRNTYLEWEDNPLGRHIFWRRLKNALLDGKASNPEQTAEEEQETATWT

No constants are given. Whether binding was seen depends on the method and setting. In cells and extracts the contact can be indirect. Some results given as binding are weak or reduced against the parent protein; the word gives no strength.

The target in the experiment is toll-like receptor 4 (TLR4) (mouse (endogenous in BMDMs)) (UniProt Q9QUK6). Briefly: co-IP; BMDM lysate (IP lysis buffer, 500 ug protein) with 1 ug anti-TLR4 antibody overnight at 4 °C, protein A/G magnetic beads, blot with anti-Rab5a; cells treated with LPS (1 ug/ml) with or without propofol (50 uM) pretreatment.

B1: Rab5a (protein, UniProt Q9CQD1 1-215)
chain: MANRGATRPNGPNTGNKICQFKLVLLGESAVGKSSLVLRFVKGQFHEFQESTIGAAFLTQTVCLDDTTVKFEIWDTAGQERYHSLAPMYYRGAQAAIVVYDITNEESFARAKNWVKELQRQASPNIVIALSGNKADLANKRAVDFQEAQSYADDNSLLFMETSAKTSMNVNEIFMAIAKKLPKNEPQNPGANSARGRGVDLTEPAQPARSQCCSN
As for B1, the binding result is listed as “binds”.
